From the supplement of paper PMC5836539
± gives the standard deviation of the averaged measurements. Most values lie within the scatter of the assay; repeated measurements hardly agree.

Amino acid sequences for entries named in this document (tags omitted). A change or cut given only in a name is not applied to a line headed by its entry.
UniProt Q9Y3Q8: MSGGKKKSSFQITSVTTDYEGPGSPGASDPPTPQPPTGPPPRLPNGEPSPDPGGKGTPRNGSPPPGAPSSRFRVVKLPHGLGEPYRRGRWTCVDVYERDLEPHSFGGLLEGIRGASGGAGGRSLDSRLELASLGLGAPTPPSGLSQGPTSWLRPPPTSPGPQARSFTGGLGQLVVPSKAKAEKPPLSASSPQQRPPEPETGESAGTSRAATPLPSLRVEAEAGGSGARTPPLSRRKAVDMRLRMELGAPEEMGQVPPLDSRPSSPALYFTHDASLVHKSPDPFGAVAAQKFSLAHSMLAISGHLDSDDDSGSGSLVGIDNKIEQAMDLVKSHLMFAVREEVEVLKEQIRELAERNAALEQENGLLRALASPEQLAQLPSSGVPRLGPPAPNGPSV
UniProt P40222: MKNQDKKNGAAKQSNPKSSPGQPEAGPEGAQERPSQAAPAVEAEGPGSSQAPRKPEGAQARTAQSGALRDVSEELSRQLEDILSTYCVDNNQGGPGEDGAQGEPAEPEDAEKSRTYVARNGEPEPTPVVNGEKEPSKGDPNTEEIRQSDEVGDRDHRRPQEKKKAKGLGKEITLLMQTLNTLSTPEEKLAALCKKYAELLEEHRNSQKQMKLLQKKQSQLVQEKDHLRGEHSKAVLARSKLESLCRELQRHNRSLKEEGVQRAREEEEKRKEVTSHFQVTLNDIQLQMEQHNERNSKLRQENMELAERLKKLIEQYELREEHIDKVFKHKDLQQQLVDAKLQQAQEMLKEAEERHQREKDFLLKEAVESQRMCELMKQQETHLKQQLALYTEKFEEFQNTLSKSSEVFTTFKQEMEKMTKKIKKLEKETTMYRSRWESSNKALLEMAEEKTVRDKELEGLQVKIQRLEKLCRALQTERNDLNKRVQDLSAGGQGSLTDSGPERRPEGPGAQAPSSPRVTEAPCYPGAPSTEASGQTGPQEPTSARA
UniProt Q96S82: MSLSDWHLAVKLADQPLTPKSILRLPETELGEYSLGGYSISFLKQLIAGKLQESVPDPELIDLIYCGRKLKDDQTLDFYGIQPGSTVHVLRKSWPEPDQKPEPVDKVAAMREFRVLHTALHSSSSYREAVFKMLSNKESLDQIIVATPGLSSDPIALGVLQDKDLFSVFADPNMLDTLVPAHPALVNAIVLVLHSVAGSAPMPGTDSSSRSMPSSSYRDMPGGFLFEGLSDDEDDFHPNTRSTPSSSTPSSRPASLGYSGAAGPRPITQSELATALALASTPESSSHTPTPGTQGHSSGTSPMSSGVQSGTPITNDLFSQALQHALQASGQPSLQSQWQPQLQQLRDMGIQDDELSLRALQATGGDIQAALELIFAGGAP
UniProt O94888: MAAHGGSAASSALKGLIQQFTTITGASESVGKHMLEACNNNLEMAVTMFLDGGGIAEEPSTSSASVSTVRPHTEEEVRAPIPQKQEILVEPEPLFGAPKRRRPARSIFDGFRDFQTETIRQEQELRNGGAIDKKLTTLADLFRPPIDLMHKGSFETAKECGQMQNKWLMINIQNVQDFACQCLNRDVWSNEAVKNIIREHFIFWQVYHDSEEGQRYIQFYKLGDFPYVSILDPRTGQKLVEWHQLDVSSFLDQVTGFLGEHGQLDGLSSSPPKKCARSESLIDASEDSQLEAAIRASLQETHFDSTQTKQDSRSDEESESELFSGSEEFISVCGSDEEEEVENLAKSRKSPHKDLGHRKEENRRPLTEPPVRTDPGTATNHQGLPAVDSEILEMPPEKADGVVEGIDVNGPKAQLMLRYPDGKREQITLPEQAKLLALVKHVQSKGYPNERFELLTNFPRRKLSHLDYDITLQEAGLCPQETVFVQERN
UniProt Q9UPU5: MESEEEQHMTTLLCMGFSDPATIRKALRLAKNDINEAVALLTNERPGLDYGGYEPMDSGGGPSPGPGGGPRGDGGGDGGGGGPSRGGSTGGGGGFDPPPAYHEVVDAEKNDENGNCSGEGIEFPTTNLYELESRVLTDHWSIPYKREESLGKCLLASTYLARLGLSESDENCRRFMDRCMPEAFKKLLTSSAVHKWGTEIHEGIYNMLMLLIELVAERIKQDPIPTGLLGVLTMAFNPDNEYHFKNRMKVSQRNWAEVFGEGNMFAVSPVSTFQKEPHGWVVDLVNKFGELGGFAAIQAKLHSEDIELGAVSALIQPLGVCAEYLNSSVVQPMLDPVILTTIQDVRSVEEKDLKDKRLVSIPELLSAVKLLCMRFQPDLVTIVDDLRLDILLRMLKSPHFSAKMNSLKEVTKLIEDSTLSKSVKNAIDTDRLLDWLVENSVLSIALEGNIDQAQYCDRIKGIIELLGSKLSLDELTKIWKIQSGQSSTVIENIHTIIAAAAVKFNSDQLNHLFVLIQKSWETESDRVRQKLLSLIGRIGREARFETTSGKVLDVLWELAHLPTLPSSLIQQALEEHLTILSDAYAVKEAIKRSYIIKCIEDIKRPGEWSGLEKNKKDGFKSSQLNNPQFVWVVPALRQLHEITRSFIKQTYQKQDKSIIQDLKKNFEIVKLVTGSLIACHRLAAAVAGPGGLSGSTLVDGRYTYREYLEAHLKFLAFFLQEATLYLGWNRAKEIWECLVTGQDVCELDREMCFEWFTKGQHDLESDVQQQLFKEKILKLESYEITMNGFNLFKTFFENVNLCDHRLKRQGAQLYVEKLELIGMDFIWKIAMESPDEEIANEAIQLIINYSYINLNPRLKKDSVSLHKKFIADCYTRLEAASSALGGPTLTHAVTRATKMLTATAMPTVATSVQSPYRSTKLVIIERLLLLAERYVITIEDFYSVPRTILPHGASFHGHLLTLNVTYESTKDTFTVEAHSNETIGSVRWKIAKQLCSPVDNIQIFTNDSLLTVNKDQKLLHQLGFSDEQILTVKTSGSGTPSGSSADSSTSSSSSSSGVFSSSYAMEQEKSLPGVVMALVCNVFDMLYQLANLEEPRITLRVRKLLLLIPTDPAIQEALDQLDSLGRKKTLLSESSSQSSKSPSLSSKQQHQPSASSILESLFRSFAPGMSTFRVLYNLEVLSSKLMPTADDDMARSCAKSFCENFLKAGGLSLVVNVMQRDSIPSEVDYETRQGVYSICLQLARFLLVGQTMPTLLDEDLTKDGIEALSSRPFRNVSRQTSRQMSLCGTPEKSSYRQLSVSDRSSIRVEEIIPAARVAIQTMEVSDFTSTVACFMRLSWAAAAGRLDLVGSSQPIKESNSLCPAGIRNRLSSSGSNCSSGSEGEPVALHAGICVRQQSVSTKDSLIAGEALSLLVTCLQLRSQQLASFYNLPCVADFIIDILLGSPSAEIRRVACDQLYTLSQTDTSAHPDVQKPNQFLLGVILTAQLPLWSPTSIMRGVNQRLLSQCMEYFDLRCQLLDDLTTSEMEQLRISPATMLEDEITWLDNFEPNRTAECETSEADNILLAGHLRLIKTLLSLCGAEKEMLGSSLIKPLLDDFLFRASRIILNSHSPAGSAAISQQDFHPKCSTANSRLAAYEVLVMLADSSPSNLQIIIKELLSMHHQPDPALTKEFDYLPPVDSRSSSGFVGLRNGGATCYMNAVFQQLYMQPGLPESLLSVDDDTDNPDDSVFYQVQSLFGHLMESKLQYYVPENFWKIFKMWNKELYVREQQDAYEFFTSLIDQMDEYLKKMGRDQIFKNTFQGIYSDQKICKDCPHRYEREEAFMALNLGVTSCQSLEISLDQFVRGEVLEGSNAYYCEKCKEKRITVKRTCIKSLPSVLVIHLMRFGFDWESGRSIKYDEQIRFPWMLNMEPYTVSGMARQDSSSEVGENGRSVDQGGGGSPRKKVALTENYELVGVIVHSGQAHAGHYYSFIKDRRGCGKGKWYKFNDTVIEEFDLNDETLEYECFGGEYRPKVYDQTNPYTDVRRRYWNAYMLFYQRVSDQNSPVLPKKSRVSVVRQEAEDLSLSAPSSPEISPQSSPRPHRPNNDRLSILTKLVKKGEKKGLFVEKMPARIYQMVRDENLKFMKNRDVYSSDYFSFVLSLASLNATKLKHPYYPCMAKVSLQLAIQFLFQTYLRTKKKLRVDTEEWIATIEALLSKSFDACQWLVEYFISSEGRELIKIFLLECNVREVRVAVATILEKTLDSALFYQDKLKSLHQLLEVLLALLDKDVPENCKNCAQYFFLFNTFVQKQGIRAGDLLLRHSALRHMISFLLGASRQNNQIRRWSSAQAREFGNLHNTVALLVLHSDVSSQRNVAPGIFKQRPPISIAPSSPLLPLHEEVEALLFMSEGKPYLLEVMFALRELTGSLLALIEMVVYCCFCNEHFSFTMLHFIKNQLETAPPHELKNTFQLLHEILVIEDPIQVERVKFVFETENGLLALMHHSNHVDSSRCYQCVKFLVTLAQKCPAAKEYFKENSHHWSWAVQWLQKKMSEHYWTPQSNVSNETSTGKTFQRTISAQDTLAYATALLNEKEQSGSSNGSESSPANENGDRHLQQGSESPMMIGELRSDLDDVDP
UniProt O94804: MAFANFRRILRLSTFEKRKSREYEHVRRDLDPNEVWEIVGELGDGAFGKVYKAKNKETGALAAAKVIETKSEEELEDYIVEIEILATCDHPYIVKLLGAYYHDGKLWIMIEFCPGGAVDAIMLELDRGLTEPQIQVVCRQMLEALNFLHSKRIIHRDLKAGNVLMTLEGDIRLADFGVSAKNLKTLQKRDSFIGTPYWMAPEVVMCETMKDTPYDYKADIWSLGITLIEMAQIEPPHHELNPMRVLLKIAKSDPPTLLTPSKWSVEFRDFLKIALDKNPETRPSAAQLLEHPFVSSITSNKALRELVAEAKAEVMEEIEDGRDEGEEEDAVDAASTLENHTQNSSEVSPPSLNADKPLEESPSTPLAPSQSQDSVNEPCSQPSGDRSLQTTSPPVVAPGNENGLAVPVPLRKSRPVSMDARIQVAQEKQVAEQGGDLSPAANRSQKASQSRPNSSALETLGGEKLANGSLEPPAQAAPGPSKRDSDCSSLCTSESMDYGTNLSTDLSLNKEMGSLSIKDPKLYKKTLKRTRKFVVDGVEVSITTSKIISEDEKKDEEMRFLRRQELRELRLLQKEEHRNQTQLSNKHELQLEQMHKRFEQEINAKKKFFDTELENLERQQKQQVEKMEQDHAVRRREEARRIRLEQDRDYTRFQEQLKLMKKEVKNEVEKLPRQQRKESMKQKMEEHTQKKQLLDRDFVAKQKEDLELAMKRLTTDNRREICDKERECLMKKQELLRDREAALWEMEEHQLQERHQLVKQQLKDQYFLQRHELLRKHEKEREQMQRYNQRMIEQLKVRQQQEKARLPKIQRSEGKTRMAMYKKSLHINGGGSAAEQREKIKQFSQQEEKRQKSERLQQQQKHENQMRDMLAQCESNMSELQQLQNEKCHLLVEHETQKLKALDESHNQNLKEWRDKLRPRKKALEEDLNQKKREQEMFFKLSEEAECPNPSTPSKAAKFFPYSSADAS
UniProt O95747, whole entry, looked up: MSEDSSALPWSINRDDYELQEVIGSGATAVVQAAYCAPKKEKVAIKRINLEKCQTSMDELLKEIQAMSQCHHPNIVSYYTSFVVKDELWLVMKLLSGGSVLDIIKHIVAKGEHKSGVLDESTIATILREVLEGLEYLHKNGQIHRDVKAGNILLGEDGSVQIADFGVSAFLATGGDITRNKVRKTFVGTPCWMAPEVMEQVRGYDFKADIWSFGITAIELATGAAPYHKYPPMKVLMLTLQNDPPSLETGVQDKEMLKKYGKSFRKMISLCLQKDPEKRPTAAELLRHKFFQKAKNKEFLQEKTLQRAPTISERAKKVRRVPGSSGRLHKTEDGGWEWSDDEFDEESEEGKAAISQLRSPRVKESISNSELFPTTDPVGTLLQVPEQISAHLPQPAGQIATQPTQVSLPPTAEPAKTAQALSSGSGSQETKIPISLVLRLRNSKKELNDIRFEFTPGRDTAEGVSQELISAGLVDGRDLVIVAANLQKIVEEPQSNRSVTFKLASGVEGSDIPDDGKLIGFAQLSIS
UniProt P08651, whole entry, looked up: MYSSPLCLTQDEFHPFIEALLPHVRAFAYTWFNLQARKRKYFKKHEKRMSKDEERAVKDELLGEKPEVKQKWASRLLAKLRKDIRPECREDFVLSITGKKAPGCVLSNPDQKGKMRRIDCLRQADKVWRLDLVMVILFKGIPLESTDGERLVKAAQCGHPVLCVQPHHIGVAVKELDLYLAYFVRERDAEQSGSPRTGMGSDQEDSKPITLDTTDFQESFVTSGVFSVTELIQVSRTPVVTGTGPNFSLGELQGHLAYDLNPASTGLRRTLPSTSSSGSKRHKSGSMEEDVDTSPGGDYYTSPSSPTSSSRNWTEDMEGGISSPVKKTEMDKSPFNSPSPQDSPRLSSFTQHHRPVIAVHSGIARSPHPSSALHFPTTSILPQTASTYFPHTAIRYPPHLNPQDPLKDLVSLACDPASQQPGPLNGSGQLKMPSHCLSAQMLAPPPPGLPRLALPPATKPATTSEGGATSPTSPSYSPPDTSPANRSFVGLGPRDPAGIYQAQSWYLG

Experiments:
XL888 [1] = compound: T1, CC[C@@H](C)Nc1cc(C(=O)N[C@H]2C[C@H]3CC[C@@H](C2)N3c2ccc(C(=O)C3CC3)cn2)c(C)cc1C(N)=O [XL888]; test: phosphopeptide melting temperature shift (XL888 minus DMSO); higher = stabilised by drug treatment; settings: 100 µM; treatment time 2 h; layout: intact cells; SK-Mel 24
Procedure: (§1)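 Phospho-TPP in intact SK-Mel 24 cells treated with 100 uM XL888 or DMSO for 2 h, heated at 10 temperatures (37-67 C) for 3 min, soluble fraction TMT10plex-labelled and TiO2 phospho-enriched. Melting curves were fitted per phosphopeptide; the value is the melting point difference (drug minus vehicle) in each of two biological replicates.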

XL888 [2] = compound: T1, XL888; test: as above; settings: 100 µM; treatment time 2 h; layout: intact cells; SK-Mel 28
Procedure: as §1, with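 “28” for “24”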

Target	phosphopeptide melting temperature shift (XL888 [1]) [°C]	phosphopeptide melting temperature shift (XL888 [2]) [°C]
TSC22D4 phosphosite_229 (phosphosite position: 229) (UniProt Q9Y3Q8)	-1.61	-0.0854
TSC22D4 phosphosite_279 (phosphosite position: 279) (UniProt Q9Y3Q8)	-0.519	2.4
TUSC1 phosphosite_153 (phosphosite position: 153) (UniProt Q2TAM9)	0.777	2.22
TXLNA phosphosite_515 (phosphosite position: 515) (UniProt P40222)	-0.112	0.945 ± 1.2
UBA1 phosphosite_13 (phosphosite position: 13) (UniProt P22314)	0.241 ± 0.59	0.144 ± 0.87
UBL7 phosphosite_230 (phosphosite position: 230) (UniProt Q96S82)	0.395	0.304 ± 1.2
UBXN7 phosphosite_288 (phosphosite position: 288) (UniProt O94888)	-1.45	1.26
UHRF1BP1L phosphosite_418 (phosphosite position: 418) (UniProt A0JNW5)	0.127	-0.15 ± 0.11
USP24 phosphosite_1943 (phosphosite position: 1943) (UniProt Q9UPU5)	-1.53	1.32
USP24 phosphosite_2561 (phosphosite position: 2561) (UniProt Q9UPU5)	0.403	-0.013 ± 0.044
UniProt O00203-3_phosphosite_227 (phosphosite position: 227)	0.223	1.53 ± 0.38
UniProt O00203-3_phosphosite_701 (phosphosite position: 701)	-0.0747	0.938 ± 0.43
UniProt O00429-4_phosphosite_579 (phosphosite position: 579)	-0.282 ± 0.33	0.464 ± 1.2
UniProt O14874-2_phosphosite_31 (phosphosite position: 31)	0.877 ± 0.45	1.19 ± 1.1
UniProt O43815-2_phosphosite_233 (phosphosite position: 233)	0.256	0.942 ± 0.34
UniProt O60333-2_phosphosite_1011 (phosphosite position: 1011)	0.549 ± 0.49	-0.371
UniProt O60502-3_phosphosite_364 (phosphosite position: 364)	1.34	0.692 ± 0.53
UniProt O75382-3_phosphosite_7 (phosphosite position: 7)	0.287 ± 0.63	0.623 ± 0.54
UniProt O75382-3_phosphosite_358 (phosphosite position: 358)	0.737	1.09 ± 1.2
UniProt O94804_phosphosite_952 (phosphosite position: 952)	-0.342	0.183 ± 0.45
UniProt O94979-3_phosphosite_527 (phosphosite position: 527)	0.458	0.0243 ± 0.51
UniProt O94979-3_phosphosite_799 (phosphosite position: 799)	0.572 ± 0.55	1.77 ± 0.098
UniProt O95218-2_phosphosite_181 (phosphosite position: 181)	0.139	-0.738 ± 0.96
UniProt O95747_phosphosite_339 (phosphosite position: 339)	-0.672 ± 0.64	-0.624 ± 0.25
UniProt P08559-3_phosphosite_262 (phosphosite position: 262)	0.205 ± 0.47	1.48 ± 2.9
UniProt P08651-4_phosphosite_290 (phosphosite position: 290)	0.61	-0.0174
UniProt P11137-3_phosphosite_1645 (phosphosite position: 1645)	1.21	2

2 consecutive entries from above, for reference:
Target	phosphopeptide melting temperature shift (XL888 [1]) [°C]	phosphopeptide melting temperature shift (XL888 [2]) [°C]
UBA1 phosphosite_13 (phosphosite position: 13) (UniProt P22314)	0.241 ± 0.59	0.144 ± 0.87
UBL7 phosphosite_230 (phosphosite position: 230) (UniProt Q96S82)	0.395	0.304 ± 1.2
